Results are given in words; binding and its absence hold for the method and conditions named. Binding seen in cells or lysates may run through a third protein. Some results given as binding are weak or reduced against the parent protein; the word gives no strength. For some assays here: Tags and fused reporters may be left off the sequences shown.
What was measured:
[1] = target: T1, Flag-GCLM (Flag-tagged glutamate-cysteine ligase modifier subunit) (UniProt P48507); experiment: co-IP; ISG15 truncation constructs 1-80 and 1-120 with GCLM (Figure S4E); cells and antibody of the precipitation not shown
T1 sequence: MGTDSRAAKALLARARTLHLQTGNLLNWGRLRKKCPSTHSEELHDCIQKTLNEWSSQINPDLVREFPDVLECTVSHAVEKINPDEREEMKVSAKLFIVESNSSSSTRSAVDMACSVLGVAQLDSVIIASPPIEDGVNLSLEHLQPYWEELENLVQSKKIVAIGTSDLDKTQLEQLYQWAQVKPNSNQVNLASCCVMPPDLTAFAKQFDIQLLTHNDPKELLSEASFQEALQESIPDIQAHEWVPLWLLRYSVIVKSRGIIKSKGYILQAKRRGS

Chains of the proteins cited; added tags and fusions are not shown. Lines headed by an entry give the natural chain unless they say otherwise; changes in a name come on top. A line that says so, or that is headed by a name, gives the form on record, which may keep a tag or linker. Residues count along the entry.
UniProt P05161: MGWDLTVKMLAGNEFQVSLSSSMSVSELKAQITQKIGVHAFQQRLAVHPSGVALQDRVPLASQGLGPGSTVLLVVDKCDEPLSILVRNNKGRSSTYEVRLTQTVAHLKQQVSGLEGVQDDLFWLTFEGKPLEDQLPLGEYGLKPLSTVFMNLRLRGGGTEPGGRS
Myc-ISG15-AA (P05161, form named): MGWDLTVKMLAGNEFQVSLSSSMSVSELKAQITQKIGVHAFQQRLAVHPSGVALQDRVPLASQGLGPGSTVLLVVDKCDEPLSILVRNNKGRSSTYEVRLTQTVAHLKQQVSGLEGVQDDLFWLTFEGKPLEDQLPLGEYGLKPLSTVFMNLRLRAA
UniProt Q64339, residues 1-155: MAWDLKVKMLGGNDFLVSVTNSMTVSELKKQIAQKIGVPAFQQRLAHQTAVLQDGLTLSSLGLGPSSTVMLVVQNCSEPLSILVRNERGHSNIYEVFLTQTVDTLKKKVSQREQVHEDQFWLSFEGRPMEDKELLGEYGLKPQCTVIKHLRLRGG

[2] = target: T1, Flag-GCLM (Flag-tagged glutamate-cysteine ligase modifier subunit); experiment: co-IP; HEK293T co-transfected with Flag-GCLM and Myc- or HA-tagged ISG15 constructs; anti-Flag immunoprecipitates blotted with anti-Flag and anti-Myc or anti-HA; lysates with antibody and Dynabeads Protein G overnight at 4 °C, washed with pre-lysis buffer containing 50 mM NaCl
[3] = target: T2, Gclm (endogenous, mouse HCC tissue) (mouse (endogenous in HCC tissue)) (UniProt O09172); experiment: co-IP; endogenous proteins in mouse HCC tissue lysate; anti-Gclm immunoprecipitate blotted with anti-Gclm and anti-Isg15
T2 sequence: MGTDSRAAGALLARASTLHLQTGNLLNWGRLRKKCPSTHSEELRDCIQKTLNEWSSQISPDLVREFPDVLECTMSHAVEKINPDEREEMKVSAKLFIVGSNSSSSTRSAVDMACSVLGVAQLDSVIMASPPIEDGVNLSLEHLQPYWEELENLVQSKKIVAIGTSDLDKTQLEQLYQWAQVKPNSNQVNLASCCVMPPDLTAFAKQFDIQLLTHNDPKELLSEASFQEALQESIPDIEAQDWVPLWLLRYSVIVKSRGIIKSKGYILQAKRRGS

[4] = target: T3, Gclc (endogenous, mouse HCC tissue) (mouse (endogenous in HCC tissue)) (UniProt P97494); experiment: co-IP; endogenous proteins in pooled mouse HCC samples (Isg15-WT or Isg15-KO, NCD or HFD); anti-Gclc immunoprecipitates blotted with anti-Gclm and anti-Gclc
T3 sequence: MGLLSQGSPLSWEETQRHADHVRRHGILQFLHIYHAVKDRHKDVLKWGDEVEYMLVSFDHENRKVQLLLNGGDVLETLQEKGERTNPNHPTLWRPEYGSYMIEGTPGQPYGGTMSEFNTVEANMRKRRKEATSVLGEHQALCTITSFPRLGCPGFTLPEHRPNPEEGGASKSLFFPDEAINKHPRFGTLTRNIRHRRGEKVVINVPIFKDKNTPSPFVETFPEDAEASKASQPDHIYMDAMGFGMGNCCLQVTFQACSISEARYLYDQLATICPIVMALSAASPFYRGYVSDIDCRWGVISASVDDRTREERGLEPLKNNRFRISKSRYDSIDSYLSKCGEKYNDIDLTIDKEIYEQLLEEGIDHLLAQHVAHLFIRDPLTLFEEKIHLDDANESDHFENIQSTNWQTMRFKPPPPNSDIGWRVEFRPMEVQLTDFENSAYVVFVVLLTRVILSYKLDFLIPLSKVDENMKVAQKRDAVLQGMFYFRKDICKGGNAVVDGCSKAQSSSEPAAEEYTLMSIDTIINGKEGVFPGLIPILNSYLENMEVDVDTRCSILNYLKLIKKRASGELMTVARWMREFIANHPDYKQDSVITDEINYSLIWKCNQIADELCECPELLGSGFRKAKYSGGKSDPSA

[5] = target: T4, GCLC (endogenous, Hep3B and HepG2 cells) (human (endogenous in Hep3B and HepG2)) (UniProt P48506); experiment: co-IP; endogenous GCLC and GCLM in Hep3B and HepG2 lysates; anti-GCLC immunoprecipitates blotted for GCLC, GCLM and ISG15; cells ISG15-WT, ISG15-KO or ISG15/UBA7 dual-KO, with or without 100 µM PA for 24 h, with or without transfected HA-ISG15-GG, -AA, -84AAA or -Δ85-93
T4 sequence: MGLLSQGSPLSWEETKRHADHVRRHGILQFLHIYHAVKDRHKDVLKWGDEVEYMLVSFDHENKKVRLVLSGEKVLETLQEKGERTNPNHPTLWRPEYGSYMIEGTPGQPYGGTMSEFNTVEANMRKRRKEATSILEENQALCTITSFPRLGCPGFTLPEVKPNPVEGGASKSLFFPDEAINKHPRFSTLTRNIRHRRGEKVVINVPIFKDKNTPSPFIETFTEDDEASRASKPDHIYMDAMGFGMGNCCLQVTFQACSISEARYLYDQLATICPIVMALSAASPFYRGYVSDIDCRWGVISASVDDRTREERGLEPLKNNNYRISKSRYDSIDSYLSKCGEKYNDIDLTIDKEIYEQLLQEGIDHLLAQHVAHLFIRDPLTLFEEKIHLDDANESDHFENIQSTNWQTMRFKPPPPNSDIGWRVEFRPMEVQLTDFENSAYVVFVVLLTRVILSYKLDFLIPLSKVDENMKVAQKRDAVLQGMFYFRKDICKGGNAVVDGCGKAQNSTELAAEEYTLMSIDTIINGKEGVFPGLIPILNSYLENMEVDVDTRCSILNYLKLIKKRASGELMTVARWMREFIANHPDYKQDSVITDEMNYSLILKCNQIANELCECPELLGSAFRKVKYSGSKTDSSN

[6] = target: T5, GCLC overexpressed in Hep3B cells (HA-tagged GCLC) (UniProt P48506); experiment: co-IP; Hep3B cells overexpressing GCLM and GCLC with or without exogenous ISG15 (Figure S4I); antibody of the precipitation not shown
T5 sequence: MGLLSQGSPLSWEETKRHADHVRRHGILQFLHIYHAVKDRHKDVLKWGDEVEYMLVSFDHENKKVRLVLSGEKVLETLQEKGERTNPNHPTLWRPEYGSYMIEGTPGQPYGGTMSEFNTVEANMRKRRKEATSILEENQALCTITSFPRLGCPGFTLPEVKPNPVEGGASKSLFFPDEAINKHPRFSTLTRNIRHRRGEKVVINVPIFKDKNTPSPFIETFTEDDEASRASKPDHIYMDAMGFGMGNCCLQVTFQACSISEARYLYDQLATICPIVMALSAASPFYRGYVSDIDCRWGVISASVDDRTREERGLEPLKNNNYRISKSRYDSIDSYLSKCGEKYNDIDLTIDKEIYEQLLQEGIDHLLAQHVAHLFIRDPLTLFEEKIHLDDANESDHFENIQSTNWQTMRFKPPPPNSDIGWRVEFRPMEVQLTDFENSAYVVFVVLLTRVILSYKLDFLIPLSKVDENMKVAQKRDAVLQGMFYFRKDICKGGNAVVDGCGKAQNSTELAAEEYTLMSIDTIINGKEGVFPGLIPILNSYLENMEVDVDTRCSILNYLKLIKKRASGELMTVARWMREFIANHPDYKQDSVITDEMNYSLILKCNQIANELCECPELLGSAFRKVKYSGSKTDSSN

## HA-ISG15-1-120 (from UniProt P05161 1-120) (domain or fragment)
[1]
  binding: binds

## HA-ISG15-GG (from UniProt P05161 1-157)
[2]
  binding: binds

## Isg15 (endogenous, mouse HCC tissue) (from UniProt Q64339 1-155)
[3]
  binding: binds

## Myc-ISG15-AA (from UniProt P05161 1-157)
[2]
  binding: binds

## Myc-ISG15-GG (from UniProt P05161 1-157)
[2]
  binding: binds

B1: Gclm (endogenous, mouse HCC tissue) (protein, UniProt O09172 1-274)
chain: MGTDSRAAGALLARASTLHLQTGNLLNWGRLRKKCPSTHSEELRDCIQKTLNEWSSQISPDLVREFPDVLECTMSHAVEKINPDEREEMKVSAKLFIVGSNSSSSTRSAVDMACSVLGVAQLDSVIMASPPIEDGVNLSLEHLQPYWEELENLVQSKKIVAIGTSDLDKTQLEQLYQWAQVKPNSNQVNLASCCVMPPDLTAFAKQFDIQLLTHNDPKELLSEASFQEALQESIPDIEAQDWVPLWLLRYSVIVKSRGIIKSKGYILQAKRRGS
[4]
  binding: binds

B2: GCLM (endogenous, Hep3B and HepG2 cells) (protein, UniProt P48507 1-274)
chain: MGTDSRAAKALLARARTLHLQTGNLLNWGRLRKKCPSTHSEELHDCIQKTLNEWSSQINPDLVREFPDVLECTVSHAVEKINPDEREEMKVSAKLFIVESNSSSSTRSAVDMACSVLGVAQLDSVIIASPPIEDGVNLSLEHLQPYWEELENLVQSKKIVAIGTSDLDKTQLEQLYQWAQVKPNSNQVNLASCCVMPPDLTAFAKQFDIQLLTHNDPKELLSEASFQEALQESIPDIQAHEWVPLWLLRYSVIVKSRGIIKSKGYILQAKRRGS
[5]
  binding: binds

B3: GCLM overexpressed in Hep3B cells (Flag-tagged GCLM) (protein, UniProt P48507 1-274)
chain: MGTDSRAAKALLARARTLHLQTGNLLNWGRLRKKCPSTHSEELHDCIQKTLNEWSSQINPDLVREFPDVLECTVSHAVEKINPDEREEMKVSAKLFIVESNSSSSTRSAVDMACSVLGVAQLDSVIIASPPIEDGVNLSLEHLQPYWEELENLVQSKKIVAIGTSDLDKTQLEQLYQWAQVKPNSNQVNLASCCVMPPDLTAFAKQFDIQLLTHNDPKELLSEASFQEALQESIPDIQAHEWVPLWLLRYSVIVKSRGIIKSKGYILQAKRRGS
[6]
  binding: binds
